Experimental data from PMC7841112.
Results are given in words; binding and its absence hold for the method and conditions named. In cells and extracts the contact can be indirect. Some binding calls cover weakened binding; strength is not graded here.

Protein sequences, listed by entry. Tags and fused reporters are not part of them. Lines headed by an entry give the natural chain unless they say otherwise; changes in a name come on top. Chains listed by the source or under a name are the forms on record and can include a tag or linker.
eEF1BδL WT-green fluorescent protein (GFP) (P29692, form named): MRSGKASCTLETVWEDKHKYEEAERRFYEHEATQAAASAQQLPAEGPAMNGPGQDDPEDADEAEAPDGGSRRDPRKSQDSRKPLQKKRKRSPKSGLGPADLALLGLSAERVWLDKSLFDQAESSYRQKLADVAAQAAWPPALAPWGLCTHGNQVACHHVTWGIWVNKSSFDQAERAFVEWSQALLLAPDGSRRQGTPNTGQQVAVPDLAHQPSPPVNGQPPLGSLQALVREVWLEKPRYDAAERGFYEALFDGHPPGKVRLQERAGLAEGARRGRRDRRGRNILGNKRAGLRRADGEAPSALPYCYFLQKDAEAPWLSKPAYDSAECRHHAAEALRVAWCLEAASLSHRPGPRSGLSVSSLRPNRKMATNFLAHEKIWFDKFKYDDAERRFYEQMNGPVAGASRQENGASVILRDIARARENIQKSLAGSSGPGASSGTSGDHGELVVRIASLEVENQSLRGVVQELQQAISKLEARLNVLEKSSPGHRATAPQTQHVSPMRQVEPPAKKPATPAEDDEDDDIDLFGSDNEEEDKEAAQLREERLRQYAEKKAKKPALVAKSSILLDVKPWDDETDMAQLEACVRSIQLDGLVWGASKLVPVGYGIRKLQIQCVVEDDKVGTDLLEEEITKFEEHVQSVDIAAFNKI

Biological target: eEF1BδL WT-green fluorescent protein (GFP) (UniProt P29692)
Assay: co-IP; cell extract in NP lysis buffer incubated with anti-GFP antibody overnight at 4°C, Protein A or G Sepharose; eEF1BδL-GFP precipitated, Nrf2 detected by Western blot

binding: binds
B1: Nrf2 (protein, UniProt Q16236 1-605)
chain: MMDLELPPPGLPSQQDMDLIDILWRQDIDLGVSREVFDFSQRRKEYELEKQKKLEKERQEQLQKEQEKAFFAQLQLDEETGEFLPIQPAQHIQSETSGSANYSQVAHIPKSDALYFDDCMQLLAQTFPFVDDNEVSSATFQSLVPDIPGHIESPVFIATNQAQSPETSVAQVAPVDLDGMQQDIEQVWEELLSIPELQCLNIENDKLVETTMVPSPEAKLTEVDNYHFYSSIPSMEKEVGNCSPHFLNAFEDSFSSILSTEDPNQLTVNSLNSDATVNTDFGDEFYSAFIAEPSISNSMPSPATLSHSLSELLNGPIDVSDLSLCKAFNQNHPESTAEFNDSDSGISLNTSPSVASPEHSVESSSYGDTLLGLSDSEVEELDSAPGSVKQNGPKTPVHSSGDMVQPLSPSQGQSTHVHDAQCENTPEKELPVSPGHRKTPFTKDKHSSRLEAHLTRDELRAKALHIPFPVEKIINLPVVDFNEMMSKEQFNEAQLALIRDIRRRGKNKVAAQNCRKRKLENIVELEQDLDHLKDEKEKLLKEKGENDKSLHLLKKQLSTLYLEVFSMLRDEDGKPYSPSEYSLQQTRDGNVFLVPKSKKPDVKKN
